Measured data: PubChem BioAssay AID1259308 (NCATS, 2017)

- Assay: 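Candidate targets for better recombinant protein yield in mammalian cells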 (primary screen)
- System: human HEK293 embryonic kidney cells stably expressing firefly luciferase (HEK-CMV-Luc2-Hygro)
- Knock-down reagent: single siRNA against human genes, 0.8 pmol siRNA per well
- Timing: 72 h
- Measurement: 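Reporter luminescence and viable-cell signal on separate replicate plates, given as percent of non-targeting control and median/MAD z-scores, plus per-cell luciferase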
- Reading the numbers: total luciferase, z-score and total luciferase, % of control: higher = more reporter protein produced
- Active means: 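Active when the median/MAD z-score for overall luciferase is greater than 3; a gene was taken forward for validation with new siRNAs if at least two of its three siRNAs passed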
- Meaning of the calls: active = raised luciferase; inactive = no rise
Shown is a random part of about 59,000 deposited reagents. About 1,510 of all reagents (2.6%) count as active. 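Calls use total luciferase alone and ignore viability, so some active siRNAs may act by altering cell number.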 A number with no mark means an inactive call. The numbers tell different reagents against one gene apart. Further read-outs or replicates are left out here.

Gene	reagent no.	total luciferase, z-score	total luciferase, % of control
SLC22A23	1	0.753	96.9
SLC22A23	2	-0.566	70.6
SLC22A23	3	-1.08	60.5
STOX2	1	0.668	95.2
STOX2	2	0.836	98.5
STOX2	3	1.62	114
SPDYE21	1	0.783	97.5
SPDYE21	2	2.61	134
SPDYE21	3	-0.47	72.5
LY6G6D	1	1.34	108
LY6G6D	2	0.509	92
LY6G6D	3	-0.809	65.8
CDX4	1	1.15	105
CDX4	2	0.614	94.1
CDX4	3	-0.153	78.8
ARMS2	1	-0.888	64.2
ARMS2	2	-1.22	57.5
ARMS2	3	0.54	92.6
NCSTN	1	-0.0634	80.6
NCSTN	2	0.208	86
NCSTN	3	-0.843	65.1
ADIPOQ	1	0.0589	83.1
ADIPOQ	2	-0.0999	79.9
ADIPOQ	3	-0.271	76.5
FRS2	1	-0.675	68.5
FRS2	2	0.452	90.9
FRS2	3	-0.179	78.3
SAPCD2	1	-1.91	43.8
SAPCD2	2	-3.05	21.3
SAPCD2	3	0.357	89
RXYLT1	1	0.00577	82
RXYLT1	2	-0.0862	80.2
RXYLT1	3	-0.397	74
SLC39A9	1	0.0257	82.4
SLC39A9	2	-1.17	58.6
SLC39A9	3	0.782	97.4

Sorted by “total luciferase, % of control” (highest first): some entries from above
Gene	reagent no.	total luciferase, z-score	total luciferase, % of control
SAPCD2	3	0.357	89
RXYLT1	1	0.00577	82
SAPCD2	1	-1.91	43.8
SAPCD2	2	-3.05	21.3

The results go on.
Gene	reagent no.	total luciferase, z-score	total luciferase, % of control
KRT8P3	1	0.606	93.9
KRT8P3	2	0.395	89.7
KRT8P3	3	-0.775	66.5
FAM47DP	1	-0.65	69
FAM47DP	2	-2.07	40.8
FAM47DP	3	-0.602	69.9
C1orf116	1	0.144	84.7
C1orf116	2	0.509	92
C1orf116	3	1.27	107
FBXL21P	1	0.264	87.1
FBXL21P	2	-0.449	73
FBXL21P	3	-0.00427	81.8
SEC14L6	1	1.88	119
SEC14L6	2	-0.0767	80.4
SEC14L6	3	1.16	105
OR1E1	1	2.16	125
OR1E1	2	3.26 (active)	147
OR1E1	3	-2.88	24.7
ARF1	1	-0.243	77.1
ARF1	2	-0.652	68.9
ARF1	3	-0.0208	81.5
